According to the supplement of paper PMC11098740:
Some of the results follow. Many values rest on one well or one pass, so single values are uncertain.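 The assay uses a mixed pool of 41 HAP1 clones in which 61 cancer-associated proteins bear intron-inserted fluorescent tags, and clones are distinguished by image pattern. Results are compared against DMSO-treated control wells, and the BRD4 degrader dBET6 is the positive control.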

Chains of the proteins cited; added tags and fusions are not shown.
UniProt O14980, whole entry: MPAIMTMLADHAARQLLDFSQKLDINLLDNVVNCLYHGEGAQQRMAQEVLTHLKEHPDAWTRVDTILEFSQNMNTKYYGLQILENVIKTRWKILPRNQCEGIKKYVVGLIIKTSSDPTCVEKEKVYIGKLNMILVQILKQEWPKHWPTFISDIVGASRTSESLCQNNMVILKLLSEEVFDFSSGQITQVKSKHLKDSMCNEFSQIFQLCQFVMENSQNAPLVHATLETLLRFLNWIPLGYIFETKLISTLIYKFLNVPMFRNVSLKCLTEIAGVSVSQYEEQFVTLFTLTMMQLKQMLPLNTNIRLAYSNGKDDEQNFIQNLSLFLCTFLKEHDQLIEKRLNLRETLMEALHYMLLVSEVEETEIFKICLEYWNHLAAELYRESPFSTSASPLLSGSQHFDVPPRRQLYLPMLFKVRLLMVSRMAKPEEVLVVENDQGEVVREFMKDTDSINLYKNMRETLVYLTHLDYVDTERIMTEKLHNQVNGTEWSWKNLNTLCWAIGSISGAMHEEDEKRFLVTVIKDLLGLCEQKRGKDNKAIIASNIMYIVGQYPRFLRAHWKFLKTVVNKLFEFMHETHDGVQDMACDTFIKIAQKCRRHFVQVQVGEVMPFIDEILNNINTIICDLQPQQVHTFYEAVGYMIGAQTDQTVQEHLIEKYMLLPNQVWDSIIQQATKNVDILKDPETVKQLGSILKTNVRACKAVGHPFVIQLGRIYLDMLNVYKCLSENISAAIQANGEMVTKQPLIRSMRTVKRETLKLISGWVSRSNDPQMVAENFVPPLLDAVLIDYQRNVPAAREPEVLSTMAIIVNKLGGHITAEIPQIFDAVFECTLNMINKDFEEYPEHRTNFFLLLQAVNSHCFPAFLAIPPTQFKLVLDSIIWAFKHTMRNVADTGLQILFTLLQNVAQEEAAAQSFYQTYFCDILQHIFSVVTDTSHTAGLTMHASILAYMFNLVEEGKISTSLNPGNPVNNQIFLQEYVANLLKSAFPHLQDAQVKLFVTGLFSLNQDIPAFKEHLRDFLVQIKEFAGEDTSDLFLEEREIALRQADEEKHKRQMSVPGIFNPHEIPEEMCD

Tests used:
[1] = molecular target: XPO1 (intron 15 mScarlet tag, HAP1) (UniProt O14980); assay: XPO1 fluorescence intensity change vs DMSO (log2 fold change); higher = more XPO1 protein; details: 6 h
[2] = molecular target: BRD4 (intron 10 mScarlet tag, HAP1) (UniProt O60885); assay: BRD4 median nuclear fluorescence intensity change vs DMSO (log2 fold change); higher = more BRD4 protein; details: 6 h

Row | SMILES | XPO1 fluorescence intensity change (log2) [1] | BRD4 median nuclear fluorescence intensity change (log2) [2]
1 | COc1cccc2cc(-c3csc(Nc4ccc(O)cc4)n3)c(=O)oc12 (10 µM) | 0.06 | -0.0895
2 | COc1ccc(-c2nc(NC(=O)CCCCl)sc2C)cc1 (10 µM) | 0.00836 | 0.0397
3 | CC(=O)O[C@]1(C(C)=O)CC[C@H]2[C@@H]3CCC4=CC(=O)CCC4=C3[C@@H](c3ccc(N(C)C)cc3)C[C@@]21C [Ulipristal Acetate] (9.99909 µM) | -0.16 | –
4 | O=C(/C=C/c1ccc(C(F)(F)F)cc1)c1ccc(O)c(CCCl)c1 (10 µM) | 0.041 | 0.0733
5 | COc1ccnc(NNC(=O)c2ccc3ccccc3n2)n1 (10 µM) | 0.159 | 0.0318
6 | N=C(N)NCC1COC2(CCCCC2)O1 (stereo not given) [Guanadrel] (10 µM) | 0.0513 | –
7 | N#CC(C#N)=C1C=CC=CN1/C(=C/c1ccccc1OC(F)F)C(=O)c1ccccc1 (10 µM) | 0.22 | 0.103
8 | C[C@]12C=CC(=O)N[C@@H]1CC[C@@H]1[C@@H]2CC[C@]2(C)[C@@H](C(=O)Nc3cc(C(F)(F)F)ccc3C(F)(F)F)CC[C@@H]12 [Dutasteride] (9.99927 µM) | 0.119 | –
9 | CCN(c1ccc(NC(=O)CCc2cscn2)cc1)C(C)C (10 µM) | -0.0135 | 0.0251
10 | O=C(c1ccc(OCCN2CCCCC2)cc1)c1c(-c2ccc(O)cc2)sc2cc(O)ccc12 [Raloxifene] (20 µM) | -0.0373 | –
11 | O=C(/C=C/c1ccc(F)cc1)c1ccc(O)c(CCCl)c1 (10 µM) | -0.223 | -0.0506
12 | OC(CN1CCCC1)Cn1c2ccc(Cl)cc2c2cc(Cl)ccc21 (stereo not given) (10 µM) | -0.0245 | 0.0552
13 | COc1ccc(-c2nc3ccccc3n2C(=O)c2ccccc2C(=O)O)cc1 (1 µM) | 0.14 | -0.0516
14 | COc1nc(C(=O)Nc2nc3c(s2)CN(C)CC3)cc2ccccc12 (0.1 µM) | -0.0584 | 0.055
15 | Cc1nc(-c2cccs2)sc1C(=O)N1c2ccccc2CC1C (stereo not given) (10 µM) | 0.0288 | 0.098
16 | CO[C@H]1C[C@@H]2CC[C@@H](C)[C@@](O)(O2)C(=O)C(=O)N2CCCC[C@H]2C(=O)O[C@H]([C@H](C)C[C@@H]2CC[C@@H](OC(=O)C(C)(CO)CO)[C@H](OC)C2)CC(=O)[C@H](C)/C=C(\C)[C@@H](O)[C@@H](OC)C(=O)[C@H](C)C[C@H](C)/C=C/C=C/C=C/1C [Temsirolimus] (20 µM) | -0.0348 | –
17 | COc1cc(S(=O)(=O)NCCc2c(C)[nH]c3ccc(C)cc23)c(C)cc1C (1 µM) | -0.283 | 0.0878

Row | SMILES | XPO1 fluorescence intensity change (log2) [1] | BRD4 median nuclear fluorescence intensity change (log2) [2]
18 | CC(O)CNCc1ccc(N(c2ccccc2)c2ccccc2)cc1 (stereo not given) (10 µM) | -0.0367 | -0.0282
19 | CCc1cc(NC(=O)Cc2nc(-c3ccsc3)oc2C)n[nH]1 (1 µM) | -0.365 | -0.00355
20 | O=C(Nc1nc(-c2ccccn2)cs1)c1ccc(OC(F)F)cc1 (10 µM) | -0.0596 | 0.118
21 | COc1cccc2c1N(CC(=O)Nc1ccc3c(c1)CCN3C(C)=O)CCC2 (10 µM) | -0.0626 | -0.0612
22 | O=S1(=O)C=CC2ON=C(c3c(Cl)cccc3Cl)C21 (stereo not given) (10 µM) | -0.282 | 0.00844
23 | Cc1cnc(NC(=O)C2CCCN2C(=O)c2ccc(Cl)c(Cl)c2)s1 (stereo not given) (10 µM) | -0.336 | 0.0376
24 | Cc1cccc(N2CCN(C(=O)c3cccc(C#N)c3)CC2)c1 (10 µM) | -0.00731 | 0.0963
25 | CSc1ccc(Cl)c(C(=O)N2CC(=O)Nc3ccccc32)c1 (10 µM) | 0.114 | 0.129
26 | O=C(Nc1ncc([N+](=O)[O-])s1)c1ccccc1O [Tizoxanide] (10 µM) | -0.0815 | –
27 | Cc1cc(NC(=O)c2ccc(O)c(Cl)c2)ccc1N1CCCC1=O (10 µM) | 0.0122 | 0.0839
28 | Cc1ccc(CNC(=O)c2nnc(CCl)s2)cc1 (1 µM) | 0.0148 | -0.0179
29 | O=C(NCCc1cccc(Cl)c1)C1CCCN(C(=O)c2ccc(F)cc2)C1 (stereo not given) (10 µM) | 0.0681 | 0.216
30 | Nc1nc2[nH]cc(CCc3ccc(C(=O)N[C@@H](CCC(=O)O)C(=O)O)cc3)c2c(=O)[nH]1 [pemetrexed] (1 µM) | 0.0613 | -0.0162
31 | COCCCC/C(=N\OCCN)c1ccc(C(F)(F)F)cc1 [Fluvoxamine] (9.99978 µM) | 0.0195 | –
32 | Cc1cc(NC(=O)NCc2ccc(Oc3ccc(F)cc3)cc2)no1 (10 µM) | 0.0583 | 0.0238
33 | Cc1ccc(NC(=O)CCc2ccc(C#N)cc2)nc1 (1 µM) | 0.195 | 0.0519
34 | Nc1nnc(-c2cccc(Cl)c2Cl)c(N)n1 [Lamotrigine] (10 µM) | 0.162 | –

In the list so far, 2 have a COOH group.
Row | SMILES | XPO1 fluorescence intensity change (log2) [1] | BRD4 median nuclear fluorescence intensity change (log2) [2]
13 | COc1ccc(-c2nc3ccccc3n2C(=O)c2ccccc2C(=O)O)cc1 (1 µM) | 0.14 | -0.0516
30 | Nc1nc2[nH]cc(CCc3ccc(C(=O)N[C@@H](CCC(=O)O)C(=O)O)cc3)c2c(=O)[nH]1 [pemetrexed] (1 µM) | 0.0613 | -0.0162
